PubChem BioAssay AID504784 | Drosophila RNAi Screening Center | 2011

- Screen: 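Fly genes whose silencing alters how much lipid cells keep in droplets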 (primary screen)
- Cells: Drosophila Kc167 embryonic cells
- Reagent: long dsRNA against Drosophila genes, about 250 ng dsRNA per well
- Time to read-out: 4 days
- Conditions: cells fed 400 µM oleic acid bound to BSA
- Read-out: 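Microscope images give a droplet-to-nucleus area ratio, taken as log and converted to a screen-wide B-score; higher values mean greater lipid storage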
- Reading the numbers: droplet/nuclear area B-score: higher = more stored lipid (overstorage)
The deposit covers about 17,000 reagents; this is a random part of those with a known target gene and a result. 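Each column is one replicate's B-score; the combined score over replicates was not deposited, so single values may mislead.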 Reagents against one gene are numbered here. Further read-outs or replicates are left out here.

Cyp313a2 (GeneID 41487)
- droplet/nuclear area B-score, replicate 1: -1.42

CG1983 (GeneID 43588)
- droplet/nuclear area B-score, replicate 1: -0.54

Spn28Da (GeneID 34082)
- droplet/nuclear area B-score, replicate 1: -0.923

hale (GeneID 40183)
- droplet/nuclear area B-score, replicate 1: -0.65

Eglp1 (GeneID 37736)
- droplet/nuclear area B-score, replicate 1: 0.355

Hsp110 (GeneID 39557)
- droplet/nuclear area B-score, replicate 1: 1.67

Jon99Cii (GeneID 43544) #1
- droplet/nuclear area B-score, replicate 1: -2.23

Jon99Cii (GeneID 43544) #2
- droplet/nuclear area B-score, replicate 1: -1.24

Tsp68C (GeneID 117407)
- droplet/nuclear area B-score, replicate 1: -1.78

Vajk1 (GeneID 34809)
- droplet/nuclear area B-score, replicate 1: 0.17

CG12912 (GeneID 36075)
- droplet/nuclear area B-score, replicate 1: -0.0676

CG3448 (GeneID 39094)
- droplet/nuclear area B-score, replicate 1: 0.5

sens (GeneID 45328) #1
- droplet/nuclear area B-score, replicate 1: -0.145

sens (GeneID 45328) #2
- droplet/nuclear area B-score, replicate 1: 2.21

chp (GeneID 43690)
- droplet/nuclear area B-score, replicate 1: 0.938

gammaSnap2 (GeneID 41239)
- droplet/nuclear area B-score, replicate 1: 0.62

CG32037 (GeneID 326183)
- droplet/nuclear area B-score, replicate 1: 0.87

Ac13E (GeneID 32485)
- droplet/nuclear area B-score, replicate 1: -1.8

Cyp9f2 (GeneID 41520)
- droplet/nuclear area B-score, replicate 1: -0.153

PKD (GeneID 42203)
- droplet/nuclear area B-score, replicate 1: 0.341

wa-cup (GeneID 40892)
- droplet/nuclear area B-score, replicate 1: 0.0205

CG30403 (GeneID 246595)
- droplet/nuclear area B-score, replicate 1: 0.018

Desat1 (GeneID 117369)
- droplet/nuclear area B-score, replicate 1: -2.17

Psa (GeneID 38175)
- droplet/nuclear area B-score, replicate 1: -1.88

Tsp42Ee (GeneID 35614)
- droplet/nuclear area B-score, replicate 1: 0.422

CG5335 (GeneID 37140)
- droplet/nuclear area B-score, replicate 1: -0.0328

rtet (GeneID 42500)
- droplet/nuclear area B-score, replicate 1: 1.53

GluClalpha (GeneID 42350)
- droplet/nuclear area B-score, replicate 1: -1.64

Scsalpha1 (GeneID 38447)
- droplet/nuclear area B-score, replicate 1: 0.714

RhoGEF4 (GeneID 38806)
- droplet/nuclear area B-score, replicate 1: -0.0196

Or85f (GeneID 41119)
- droplet/nuclear area B-score, replicate 1: 0.65

Eph (GeneID 43803)
- droplet/nuclear area B-score, replicate 1: 0.808

SMSr (GeneID 38823) #1
- droplet/nuclear area B-score, replicate 1: -3.09

SMSr (GeneID 38823) #2
- droplet/nuclear area B-score, replicate 1: -0.233

CG4631 (GeneID 34988) #1
- droplet/nuclear area B-score, replicate 1: -0.155

CG4631 (GeneID 34988) #2
- droplet/nuclear area B-score, replicate 1: 1.12

Hrd3 (GeneID 42806)
- droplet/nuclear area B-score, replicate 1: 0.152

eIF4H1 (GeneID 49809)
- droplet/nuclear area B-score, replicate 1: -1.57

ct (GeneID 44540)
- droplet/nuclear area B-score, replicate 1: -0.164

CG31091 (GeneID 318591)
- droplet/nuclear area B-score, replicate 1: 0.401

3 successive reagents already listed:
Or85f (GeneID 41119)
- droplet/nuclear area B-score, replicate 1: 0.65

Eph (GeneID 43803)
- droplet/nuclear area B-score, replicate 1: 0.808

SMSr (GeneID 38823) #1
- droplet/nuclear area B-score, replicate 1: -3.09
